According to paper PMC10450199:
Substitutions are numbered along the chain they refer to. Results are given in words; binding and its absence hold for the method and conditions named. In cells and extracts the contact can be indirect. Some entries that bind do so weakly or less than the wild type. Sequences can lack the tags named with a protein.

Amino acid sequences for entries named in this document (tags omitted).
UniProt O75475: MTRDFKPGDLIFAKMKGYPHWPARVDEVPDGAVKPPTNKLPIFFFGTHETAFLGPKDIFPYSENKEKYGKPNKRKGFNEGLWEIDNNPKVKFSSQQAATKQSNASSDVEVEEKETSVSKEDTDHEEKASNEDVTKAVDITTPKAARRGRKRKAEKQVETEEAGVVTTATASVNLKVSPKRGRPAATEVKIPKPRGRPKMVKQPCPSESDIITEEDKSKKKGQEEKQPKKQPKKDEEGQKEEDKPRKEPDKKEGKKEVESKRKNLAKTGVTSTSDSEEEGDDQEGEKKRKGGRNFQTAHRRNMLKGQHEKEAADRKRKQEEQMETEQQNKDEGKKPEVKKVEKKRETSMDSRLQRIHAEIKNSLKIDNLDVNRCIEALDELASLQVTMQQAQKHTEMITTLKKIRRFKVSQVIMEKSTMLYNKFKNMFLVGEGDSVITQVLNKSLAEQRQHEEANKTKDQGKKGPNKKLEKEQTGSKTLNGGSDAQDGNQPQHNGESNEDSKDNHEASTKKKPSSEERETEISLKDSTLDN
UniProt Q03164: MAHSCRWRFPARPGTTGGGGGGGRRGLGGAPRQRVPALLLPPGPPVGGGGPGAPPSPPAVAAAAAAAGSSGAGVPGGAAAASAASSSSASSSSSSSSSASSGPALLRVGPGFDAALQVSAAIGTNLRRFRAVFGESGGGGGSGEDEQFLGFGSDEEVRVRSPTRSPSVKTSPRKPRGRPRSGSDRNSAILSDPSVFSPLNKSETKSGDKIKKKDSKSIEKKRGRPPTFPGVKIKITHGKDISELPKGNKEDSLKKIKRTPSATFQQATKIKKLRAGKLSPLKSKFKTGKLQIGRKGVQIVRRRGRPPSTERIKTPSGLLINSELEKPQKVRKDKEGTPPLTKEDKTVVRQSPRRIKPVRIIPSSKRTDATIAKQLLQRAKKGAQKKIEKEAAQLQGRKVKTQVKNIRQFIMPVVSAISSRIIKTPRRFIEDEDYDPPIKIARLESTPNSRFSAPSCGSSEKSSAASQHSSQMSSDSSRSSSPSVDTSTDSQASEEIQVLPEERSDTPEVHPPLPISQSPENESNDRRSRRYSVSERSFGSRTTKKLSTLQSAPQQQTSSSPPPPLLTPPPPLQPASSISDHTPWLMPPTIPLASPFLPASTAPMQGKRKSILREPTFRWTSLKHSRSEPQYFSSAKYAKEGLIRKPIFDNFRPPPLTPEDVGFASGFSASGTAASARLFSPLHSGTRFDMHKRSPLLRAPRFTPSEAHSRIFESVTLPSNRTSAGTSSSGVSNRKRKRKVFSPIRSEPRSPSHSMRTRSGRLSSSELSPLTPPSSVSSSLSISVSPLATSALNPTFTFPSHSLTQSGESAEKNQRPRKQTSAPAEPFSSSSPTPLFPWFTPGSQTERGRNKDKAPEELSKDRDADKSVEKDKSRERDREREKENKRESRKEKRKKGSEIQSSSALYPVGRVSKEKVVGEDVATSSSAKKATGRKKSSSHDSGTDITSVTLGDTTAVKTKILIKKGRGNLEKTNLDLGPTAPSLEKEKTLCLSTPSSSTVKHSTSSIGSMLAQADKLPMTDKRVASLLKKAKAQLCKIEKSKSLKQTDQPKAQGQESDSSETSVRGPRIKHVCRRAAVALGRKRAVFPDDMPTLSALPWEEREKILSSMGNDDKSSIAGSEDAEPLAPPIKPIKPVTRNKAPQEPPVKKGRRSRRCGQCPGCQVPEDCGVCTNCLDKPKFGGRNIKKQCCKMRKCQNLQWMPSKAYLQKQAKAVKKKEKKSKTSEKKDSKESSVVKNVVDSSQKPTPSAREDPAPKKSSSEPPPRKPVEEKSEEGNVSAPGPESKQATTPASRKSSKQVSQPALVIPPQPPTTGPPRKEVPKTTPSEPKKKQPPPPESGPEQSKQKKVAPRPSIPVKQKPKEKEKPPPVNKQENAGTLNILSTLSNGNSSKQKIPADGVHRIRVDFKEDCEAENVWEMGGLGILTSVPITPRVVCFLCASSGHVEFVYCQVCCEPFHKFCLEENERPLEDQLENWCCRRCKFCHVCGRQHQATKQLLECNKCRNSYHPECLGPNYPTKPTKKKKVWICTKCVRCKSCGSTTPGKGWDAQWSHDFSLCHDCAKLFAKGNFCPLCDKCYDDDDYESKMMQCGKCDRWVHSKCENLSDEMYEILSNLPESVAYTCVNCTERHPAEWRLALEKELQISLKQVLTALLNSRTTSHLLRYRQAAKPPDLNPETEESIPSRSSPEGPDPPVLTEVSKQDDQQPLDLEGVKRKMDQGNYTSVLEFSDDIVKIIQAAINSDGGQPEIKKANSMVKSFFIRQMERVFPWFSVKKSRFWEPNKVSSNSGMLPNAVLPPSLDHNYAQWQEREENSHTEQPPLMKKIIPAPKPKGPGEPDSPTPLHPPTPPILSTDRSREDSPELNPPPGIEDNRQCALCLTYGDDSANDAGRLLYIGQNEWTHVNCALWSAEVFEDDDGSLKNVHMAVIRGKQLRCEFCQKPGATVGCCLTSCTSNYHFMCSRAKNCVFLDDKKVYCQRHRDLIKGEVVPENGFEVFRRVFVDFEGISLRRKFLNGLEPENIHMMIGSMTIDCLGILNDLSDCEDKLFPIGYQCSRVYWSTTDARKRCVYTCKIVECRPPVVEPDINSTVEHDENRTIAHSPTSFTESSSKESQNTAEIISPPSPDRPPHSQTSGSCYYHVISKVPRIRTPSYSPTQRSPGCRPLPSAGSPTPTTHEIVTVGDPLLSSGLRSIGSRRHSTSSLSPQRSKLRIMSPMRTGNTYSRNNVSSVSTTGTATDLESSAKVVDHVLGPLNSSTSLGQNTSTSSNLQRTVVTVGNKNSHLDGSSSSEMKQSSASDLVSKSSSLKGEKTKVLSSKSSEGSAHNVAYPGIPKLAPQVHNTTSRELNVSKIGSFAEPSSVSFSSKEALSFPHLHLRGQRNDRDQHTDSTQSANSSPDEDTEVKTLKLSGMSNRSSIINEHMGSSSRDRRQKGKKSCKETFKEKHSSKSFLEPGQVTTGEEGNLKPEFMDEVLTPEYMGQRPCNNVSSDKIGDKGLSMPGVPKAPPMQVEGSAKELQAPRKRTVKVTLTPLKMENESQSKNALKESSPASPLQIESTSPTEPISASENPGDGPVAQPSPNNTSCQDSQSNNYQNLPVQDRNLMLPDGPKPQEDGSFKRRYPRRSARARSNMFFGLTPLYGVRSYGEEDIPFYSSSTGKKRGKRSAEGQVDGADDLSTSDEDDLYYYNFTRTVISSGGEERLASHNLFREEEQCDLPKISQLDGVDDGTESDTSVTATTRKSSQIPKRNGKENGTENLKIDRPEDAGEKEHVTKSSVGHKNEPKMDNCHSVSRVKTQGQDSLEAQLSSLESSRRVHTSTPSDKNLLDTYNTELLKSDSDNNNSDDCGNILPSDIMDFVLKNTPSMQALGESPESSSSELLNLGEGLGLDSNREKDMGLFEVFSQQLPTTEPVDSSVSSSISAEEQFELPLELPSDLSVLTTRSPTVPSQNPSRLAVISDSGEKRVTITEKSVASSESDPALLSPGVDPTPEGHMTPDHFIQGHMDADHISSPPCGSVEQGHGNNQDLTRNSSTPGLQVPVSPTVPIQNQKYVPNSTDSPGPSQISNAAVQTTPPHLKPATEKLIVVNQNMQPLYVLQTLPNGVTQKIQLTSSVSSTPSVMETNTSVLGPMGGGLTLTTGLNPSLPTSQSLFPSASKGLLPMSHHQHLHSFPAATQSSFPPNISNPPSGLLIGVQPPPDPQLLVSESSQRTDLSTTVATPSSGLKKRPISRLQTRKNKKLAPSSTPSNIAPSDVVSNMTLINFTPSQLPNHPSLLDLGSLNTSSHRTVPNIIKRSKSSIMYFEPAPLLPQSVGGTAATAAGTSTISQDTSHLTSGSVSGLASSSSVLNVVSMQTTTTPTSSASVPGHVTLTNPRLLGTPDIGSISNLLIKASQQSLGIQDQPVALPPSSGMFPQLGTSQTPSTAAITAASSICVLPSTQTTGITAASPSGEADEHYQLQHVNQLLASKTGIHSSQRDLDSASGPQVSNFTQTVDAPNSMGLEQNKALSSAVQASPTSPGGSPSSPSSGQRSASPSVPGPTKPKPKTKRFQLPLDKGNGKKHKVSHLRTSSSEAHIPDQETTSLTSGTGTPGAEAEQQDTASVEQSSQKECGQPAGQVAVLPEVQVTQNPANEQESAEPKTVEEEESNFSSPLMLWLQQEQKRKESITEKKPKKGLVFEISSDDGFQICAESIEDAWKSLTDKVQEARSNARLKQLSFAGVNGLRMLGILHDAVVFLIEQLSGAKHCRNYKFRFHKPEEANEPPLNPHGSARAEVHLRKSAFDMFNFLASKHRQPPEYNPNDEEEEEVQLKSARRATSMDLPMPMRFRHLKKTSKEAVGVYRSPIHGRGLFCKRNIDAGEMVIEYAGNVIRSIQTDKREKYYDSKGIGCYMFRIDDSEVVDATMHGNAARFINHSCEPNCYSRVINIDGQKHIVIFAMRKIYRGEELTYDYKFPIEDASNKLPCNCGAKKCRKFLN

What was measured:
WT Menin-Flag = target: T1, WT Menin-Flag (UniProt O00255); test: co-IP; MEN1-KO NCI-H460 cells infected with vector, WT-Menin or Mut-Menin M278W lentivirus; NP-40 lysis buffer, 1 mg protein; IP with 3x Flag-menin or IgG antibodies overnight at 4 C, protein A/G magnetic beads; immunoblot for menin, MLL1 and LEDGF
T1 sequence: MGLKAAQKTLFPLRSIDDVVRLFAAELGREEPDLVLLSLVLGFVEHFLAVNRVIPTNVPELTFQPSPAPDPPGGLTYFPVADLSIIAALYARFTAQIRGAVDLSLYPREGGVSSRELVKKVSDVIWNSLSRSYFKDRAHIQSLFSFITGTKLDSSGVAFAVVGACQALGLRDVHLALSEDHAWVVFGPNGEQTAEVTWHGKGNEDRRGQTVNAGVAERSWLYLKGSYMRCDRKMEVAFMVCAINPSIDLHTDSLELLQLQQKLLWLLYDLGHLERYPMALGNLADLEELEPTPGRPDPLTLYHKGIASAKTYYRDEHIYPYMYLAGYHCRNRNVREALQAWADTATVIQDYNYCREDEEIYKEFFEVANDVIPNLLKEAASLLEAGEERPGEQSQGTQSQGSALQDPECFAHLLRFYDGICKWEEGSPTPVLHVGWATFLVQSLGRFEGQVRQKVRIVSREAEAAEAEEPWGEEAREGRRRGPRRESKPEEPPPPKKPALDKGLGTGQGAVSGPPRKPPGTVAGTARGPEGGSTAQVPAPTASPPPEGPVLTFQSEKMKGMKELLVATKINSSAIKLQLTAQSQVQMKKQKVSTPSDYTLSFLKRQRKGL

[1] = target: T2, mutant (Mut) Menin-Flag M278W (UniProt O00255); test: as above
T2 sequence: T1 sequence with M278W

Row | binding (WT Menin-Flag) | binding [1] | Substance
1 | binds | binds | lens epithelium-derived growth factor (from UniProt O75475 1-530)
2 | binds | no binding | mixed lineage leukemia protein 1 (from UniProt Q03164 1-3969)
